# Measured values reported in article PMC11545987.
# Amino acid sequences for entries named in this document (tags omitted). A change or cut given only in a name is not applied to a line headed by its entry.
# UniProt Q9UI95: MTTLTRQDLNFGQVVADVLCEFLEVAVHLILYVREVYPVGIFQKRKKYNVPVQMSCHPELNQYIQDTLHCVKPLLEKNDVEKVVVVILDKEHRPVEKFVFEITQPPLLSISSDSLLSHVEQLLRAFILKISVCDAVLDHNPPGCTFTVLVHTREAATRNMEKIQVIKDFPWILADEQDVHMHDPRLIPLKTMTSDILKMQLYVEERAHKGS
# UniProt Q9UM11: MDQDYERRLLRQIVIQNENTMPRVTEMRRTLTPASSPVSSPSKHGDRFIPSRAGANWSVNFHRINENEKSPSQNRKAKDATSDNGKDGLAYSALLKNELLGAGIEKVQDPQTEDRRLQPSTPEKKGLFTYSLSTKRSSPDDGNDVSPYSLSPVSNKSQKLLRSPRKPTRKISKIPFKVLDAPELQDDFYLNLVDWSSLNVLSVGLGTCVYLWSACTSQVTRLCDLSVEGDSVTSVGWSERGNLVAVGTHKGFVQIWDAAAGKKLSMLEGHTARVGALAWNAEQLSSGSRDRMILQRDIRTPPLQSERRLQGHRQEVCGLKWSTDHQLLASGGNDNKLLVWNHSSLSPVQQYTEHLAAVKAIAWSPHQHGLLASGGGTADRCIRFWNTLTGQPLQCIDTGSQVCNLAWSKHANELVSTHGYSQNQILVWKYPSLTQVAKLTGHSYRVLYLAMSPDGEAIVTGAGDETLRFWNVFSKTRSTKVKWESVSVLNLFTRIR
# These are yes or no findings as the source states them, for the method shown. Binding seen in cells or lysates may run through a third protein. Some binding calls cover weakened binding; strength is not graded here.
# Legend:
# [1] = target: HA-MAD2L2 WT (UniProt Q9UI95); experiment: co-IP; HEK-293 cells co-transfected with the tagged plasmids; anti-HA IP from cleared lysate (50 mM Tris-HCl pH 8, 150 mM NaCl, 20 mM EGTA, 50 mM NaF, 1% Triton X-100), 4 °C, protein G-Sepharose; immunoblot
# [2] = target: myc-CDH1 (UniProt Q9UM11); experiment: co-IP; HEK-293 cells co-transfected with the tagged plasmids; anti-myc IP from cleared lysate (50 mM Tris-HCl pH 8, 150 mM NaCl, 20 mM EGTA, 50 mM NaF, 1% Triton X-100), 4 °C, protein G-Sepharose; immunoblot
# [3] = target: myc-MAD2L2 WT (UniProt Q9UI95); experiment: as above
# [4] = target: HA-MAD2L2 A135D (UniProt Q9UI95); experiment: co-IP; HEK-293 cells co-transfected with the tagged plasmids; anti-HA IP from cleared lysate (50 mM Tris-HCl pH 8, 150 mM NaCl, 20 mM EGTA, 50 mM NaF, 1% Triton X-100), 4 °C, protein G-Sepharose; immunoblot
# [5] = target: MAD2L2, endogenous (human (endogenous in U2OS)) (UniProt Q9UI95); experiment: proximity ligation; NaveniFlex PLA on fixed U2OS WT cells transfected with a GFP vector or GFP-CDH1; foci per cell counted as MAD2L2 homodimers
binding [1],binding [3],Substance,further results
binds,,mRFP-CDH1 (from UniProt Q9UM11 1-496),
binds,,myc-CDH1 (from UniProt Q9UM11 1-496),binding [4]: binds
,binds,HA-CDH1 RAIP (F48A) (from UniProt Q9UM11 1-496),

# Continued, substance first:
Substance,binding [1],binding [3],further results
HA-MAD2L2 2DD (K44A + R124A) (from UniProt Q9UI95 1-211),,,binding [2]: binds
HA-CDH1 WT (from UniProt Q9UM11 1-496),,binds,
YFP-CDH1 (from UniProt Q9UM11 1-496),binds,,binding [4]: binds
HA-MAD2L2 WT (from UniProt Q9UI95 1-211),,,binding [2]: binds
GFP-CDH1 (from UniProt Q9UM11 1-496),,,binding [5]: binds
"MAD2L2, endogenous (from UniProt Q9UI95 1-211)",,,binding [5]: binds
YFP-MAD2L2 (from UniProt Q9UI95 1-211),,binds,
